Measured data: PubChem BioAssay AID1224830 (NIAID, 2016)
Here is a random part of about 18,000 deposited reagents. Over the whole deposit, about 2,900 (16%) got an active call. 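Calls are made per well; low scores hint the gene aids the LPS response, high scores that it dampens it.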 Entries without a mark were called inactive. Repeated entries: four replicate wells of each siRNA pool.

- Screen: 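Genes whose knock-down alters the TNF-alpha reporter response to LPS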 (primary screen)
- System: human THP-1 monocytic leukaemia cells, TNF dual-luciferase reporter clone, PMA-differentiated to macrophage-like cells
- Reagent: siRNA pool against human genes, 50 nM
- Duration: LPS for 4 h, given about 3 days after siRNA transfection
- Challenge: bacterial LPS (TLR4 ligand), 10 ng/ml
- Detection: 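TNF firefly reporter luminescence divided by renilla, normalised to the plate median, then turned into a robust z-score for each replicate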
- Scale: TNF reporter robust z-score: higher = stronger TNF reporter response to LPS
- Active means: 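a well is active when its z-score exceeds 2.8 or falls below -1.5; control wells carry no call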

TNF reporter robust z-score	gene
-0.86	ATP13A4 (GeneID 84239)
-1.24	ATP13A4 (GeneID 84239)
-1.03	ATP13A4 (GeneID 84239)
-1.49	ATP13A4 (GeneID 84239)
0.28	HRC (GeneID 3270)
-1.99 (active)	HRC (GeneID 3270)
-0.62	HRC (GeneID 3270)
-0.55	HRC (GeneID 3270)
-1.16	PPP4C (GeneID 5531)
-1	PPP4C (GeneID 5531)
-1.4	PPP4C (GeneID 5531)
-0.26	PPP4C (GeneID 5531)
-2.12 (active)	TYMSOS (GeneID 494514)
-0.92	TYMSOS (GeneID 494514)
-1.7 (active)	TYMSOS (GeneID 494514)
-1.4	TYMSOS (GeneID 494514)
0.45	PPY (GeneID 5539)
0.4	PPY (GeneID 5539)
1.3	PPY (GeneID 5539)
2.21	PPY (GeneID 5539)
0.46	WNT6 (GeneID 7475)
2.08	WNT6 (GeneID 7475)
0.92	WNT6 (GeneID 7475)
0.83	WNT6 (GeneID 7475)
-0.47	ARF6 (GeneID 382)
-0.29	ARF6 (GeneID 382)
-0.31	ARF6 (GeneID 382)
-0.22	ARF6 (GeneID 382)
-0.26	OTULIN (GeneID 90268)
-0.29	OTULIN (GeneID 90268)
0.03	OTULIN (GeneID 90268)
1.22	CRIP1 (GeneID 1396)
2.62	CRIP1 (GeneID 1396)
0.08	CRIP1 (GeneID 1396)
1.54	CRIP1 (GeneID 1396)
-1.05	LRATD2 (GeneID 157638)
-1.01	LRATD2 (GeneID 157638)
-1.25	LRATD2 (GeneID 157638)
-1.24	LRATD2 (GeneID 157638)
-0.6	ZNF317 (GeneID 57693)
0.12	ZNF317 (GeneID 57693)
-0.07	ZNF317 (GeneID 57693)
0.1	ZNF317 (GeneID 57693)
-2.19 (active)	ZNHIT3 (GeneID 9326)
-1.95 (active)	ZNHIT3 (GeneID 9326)
-1.78 (active)	ZNHIT3 (GeneID 9326)
-1.02	PPP1R9B (GeneID 84687)
-0.61	PPP1R9B (GeneID 84687)
-0.83	PPP1R9B (GeneID 84687)
-0.89	PPP1R9B (GeneID 84687)
-0.11	ADAMTS14 (GeneID 140766)
-0.24	ADAMTS14 (GeneID 140766)
1.22	ADAMTS14 (GeneID 140766)
2.87 (active)	ADAMTS14 (GeneID 140766)
1.01	UBE2QL1 (GeneID 134111)
3.26 (active)	UBE2QL1 (GeneID 134111)
-0.09	UBE2QL1 (GeneID 134111)
2.46	UBE2QL1 (GeneID 134111)
-0.19	RIMS4 (GeneID 140730)
1.06	RIMS4 (GeneID 140730)
-0.06	RIMS4 (GeneID 140730)
0.27	RIMS4 (GeneID 140730)
-0.26	PIKFYVE (GeneID 200576)
0.26	PIKFYVE (GeneID 200576)
0.4	PIKFYVE (GeneID 200576)
-0.15	PIKFYVE (GeneID 200576)
-0.65	LPCAT2 (GeneID 54947)
-0.32	LPCAT2 (GeneID 54947)
-0.89	LPCAT2 (GeneID 54947)
-0.49	LPCAT2 (GeneID 54947)
-0.47	WWTR1 (GeneID 25937)
0.52	WWTR1 (GeneID 25937)
0.21	WWTR1 (GeneID 25937)
0.88	WWTR1 (GeneID 25937)
-0.88	CYB5D1 (GeneID 124637)
-0.34	CYB5D1 (GeneID 124637)
-0.09	CYB5D1 (GeneID 124637)
0.16	CYB5D1 (GeneID 124637)
0.02	DEFB128 (GeneID 245939)
-0.9	DEFB128 (GeneID 245939)
0.05	DEFB128 (GeneID 245939)
0.72	DEFB128 (GeneID 245939)
-1.49	ATP6AP1 (GeneID 537)
-1.26	ATP6AP1 (GeneID 537)
-1.32	ATP6AP1 (GeneID 537)
-1.48	ATP6AP1 (GeneID 537)
-0.34	NSMCE3 (GeneID 56160)
0.62	NSMCE3 (GeneID 56160)
1.31	NSMCE3 (GeneID 56160)
1.68	NSMCE3 (GeneID 56160)
-1.66 (active)	TRIM64B (GeneID 642446)
-1.05	TRIM64B (GeneID 642446)
0.18	TRIM64B (GeneID 642446)
0.98	TRIM64B (GeneID 642446)
-0.36	CYTIP (GeneID 9595)
-0.31	CYTIP (GeneID 9595)
-0.69	CYTIP (GeneID 9595)
-0.6	CYTIP (GeneID 9595)
-0.64	RHEBL1 (GeneID 121268)
0.98	RHEBL1 (GeneID 121268)
-0.28	RHEBL1 (GeneID 121268)
-0.12	RHEBL1 (GeneID 121268)
-1.01	BAIAP2L2 (GeneID 80115)
-0.24	BAIAP2L2 (GeneID 80115)
-0.6	BAIAP2L2 (GeneID 80115)
0.29	BAIAP2L2 (GeneID 80115)
0.24	RRAGB (GeneID 10325)
0.06	RRAGB (GeneID 10325)
0.59	RRAGB (GeneID 10325)
1.2	RRAGB (GeneID 10325)
-0.48	OR8A1 (GeneID 390275)
-0.17	OR8A1 (GeneID 390275)
-0.01	OR8A1 (GeneID 390275)
-0.09	OR8A1 (GeneID 390275)
-0.78	METTL26 (GeneID 84326)
0.16	METTL26 (GeneID 84326)
-0.48	METTL26 (GeneID 84326)
-0.4	METTL26 (GeneID 84326)
13.4 (active)	KRTAP4-7 (GeneID 100132476)
1.58	KRTAP4-7 (GeneID 100132476)
0.18	KRTAP4-7 (GeneID 100132476)
1.48	KRTAP4-7 (GeneID 100132476)
-0.27	XRN2 (GeneID 22803)
0.13	XRN2 (GeneID 22803)
0.23	XRN2 (GeneID 22803)
-0.75	XRN2 (GeneID 22803)
-0.33	TPK1 (GeneID 27010)
0.83	TPK1 (GeneID 27010)
-0.22	TPK1 (GeneID 27010)
-0.5	TPK1 (GeneID 27010)
0.18	SMAD2 (GeneID 4087)
0.81	SMAD2 (GeneID 4087)
0.28	SMAD2 (GeneID 4087)
1.77	SMAD2 (GeneID 4087)
-0.87	DDX49 (GeneID 54555)
-0.7	DDX49 (GeneID 54555)
-0.6	DDX49 (GeneID 54555)
0.15	DDX49 (GeneID 54555)
1.48	MYH8 (GeneID 4626)
1.79	MYH8 (GeneID 4626)
1.26	MYH8 (GeneID 4626)
1.29	MYH8 (GeneID 4626)

Entries listed so far whose target name starts with O or o (7):
TNF reporter robust z-score	gene
-0.26	OTULIN (GeneID 90268)
-0.29	OTULIN (GeneID 90268)
0.03	OTULIN (GeneID 90268)
-0.48	OR8A1 (GeneID 390275)
-0.17	OR8A1 (GeneID 390275)
-0.01	OR8A1 (GeneID 390275)
-0.09	OR8A1 (GeneID 390275)
